From article PMC10351740, “ZCCHC3 is a stress granule zinc knuckle protein that strongly suppresses LINE-1 retrotransposition” (PLOS Genetics, 2023) come the findings set out here.

These are yes or no findings as the source states them, for the method shown. Binding seen in cells or lysates may run through a third protein. Binding calls can cover weak binding; strength is not graded here. Tags and fused reporters may be left off the sequences shown.

Assay [1] deals with T1, ZCCHC3-FL (Zinc Finger CCHC-Type Containing 3 with C-terminal FLAG epitope tag) (human) (UniProt Q9NUD5).
T1 sequence: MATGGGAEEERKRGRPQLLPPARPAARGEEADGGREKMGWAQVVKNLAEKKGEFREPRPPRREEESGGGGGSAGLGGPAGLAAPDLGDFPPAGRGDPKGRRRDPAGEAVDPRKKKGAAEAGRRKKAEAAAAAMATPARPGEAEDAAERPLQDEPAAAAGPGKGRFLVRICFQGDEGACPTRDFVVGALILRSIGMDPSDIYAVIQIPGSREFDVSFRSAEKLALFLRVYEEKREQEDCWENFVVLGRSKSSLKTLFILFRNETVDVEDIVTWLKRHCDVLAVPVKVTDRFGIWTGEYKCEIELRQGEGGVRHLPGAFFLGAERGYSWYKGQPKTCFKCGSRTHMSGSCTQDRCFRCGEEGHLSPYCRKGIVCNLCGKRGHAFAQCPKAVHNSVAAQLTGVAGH
Put plainly: co-IP; as a1, lysates treated with 25 μg/ml DNase-free RNase and 25 μg/ml RNaseA in the absence of RNase inhibitors.

Assay [2] has as its target T1, ZCCHC3-FL (Zinc Finger CCHC-Type Containing 3 with C-terminal FLAG epitope tag) (human). Put plainly: co-IP; whole cell lysates of transfected HEK 293T cells; FLAG-tagged bait on α-FLAG-M2 magnetic beads, eluted with 3XFLAG peptide; Western blot; no RNase.

As for “V5-TEV-DIS3L (isoform 2) (from UniProt Q8TF46-4)”, the binding entry in assay [1] and in assay [2] was “binds weakly” in each case.
